In PubChem BioAssay AID250 (DTP/NCI, 2004):
The list shows only some results of the screen, not a fair sample: it is rich in T/C values a quarter to a half above the control, in often repeated tests (any T/C) and in doses without a T/C. Other doses and runs of a compound stand elsewhere. T/C gives the treated animals as a percentage of the vehicle group. Some doses have a count of surviving animals in place of a T/C: the source holds a T/C of zero for them, seemingly a mark for toxic or unscored doses. Counts of survivors are from the toxicity check (mostly the fifth day) where no day follows; animals may have died later. Schedule codes are those of the source, read here as Q, the interval in days (D) or hours (H), X, the number of doses. Some doses were run more than once; the results are listed from low to high. Brackets with × say how often a value occurs here. Where survival is the endpoint, this PubChem deposit counts one and a half times the control or more as active, and values a quarter to a half above the control carry no call in these data; other NCI protocols may use other cut-offs. Some T/C values carry the count of animals alive at the toxicity check (mostly the fifth day); without a count, all were alive then.

Tested on: BDF1 mice, L1210 leukemia sc, survival T/C
Assay: NCI In Vivo Anticancer Drug Screen. Data for tumor model L1210 Leukemia (subcutaneous) in B6D2F1 (BDF1) mice
Settings: T/C endpoint: median survival time, vehicle: saline, higher T/C = longer survival
Summary of the method: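 Expressed as T/C: measurement in compound-treated, tumor-bearing mice relative to vehicle-treated control mice, based on survival or tumor size.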

O=P1(N(CCCl)CCCl)NCCCO1 (stereo not given)
T/C (dose: 200.0 mg/kg/injection, schedule: Q08DX003 (sc), evaluated on day 7): 276, 282, 349, 358 % of control
T/C (dose: 200.0 mg/kg/injection, schedule: Q08DX003 (sc), evaluated on day 32): 275 % of control
T/C (dose: 200.0 mg/kg/injection, schedule: Q08DX003 (sc), evaluated on day 34): 272 % of control
T/C (dose: 200.0 mg/kg/injection, schedule: Q08DX003 (sc), evaluated on day 42): 344 % of control
T/C (dose: 200.0 mg/kg/injection, schedule: Q08DX003 (sc), evaluated on day 43): 358 % of control
T/C (dose: 300.0 mg/kg/injection, schedule: Q01DX001 (sc), evaluated on day 6): 245 % of control
T/C (dose: 300.0 mg/kg/injection, schedule: Q01DX001 (sc), evaluated on day 7): 104, 109, 180, 223, 232, 277 % of control
T/C (dose: 300.0 mg/kg/injection, schedule: Q01DX001 (sc), evaluated on day 30): 180 and 232 % of control
T/C (dose: 300.0 mg/kg/injection, schedule: Q01DX001 (sc), evaluated on day 31): 266 % of control
T/C (dose: 300.0 mg/kg/injection, schedule: Q01DX001 (sc), evaluated on day 33): 227 and 245 % of control
T/C (dose: 300.0 mg/kg/injection, schedule: Q01DX001 (sc), evaluated on day 35): 111 % of control [6 of 8 alive]
T/C (dose: 300.0 mg/kg/injection, schedule: Q01DX001 (sc), evaluated on day 36): 277 % of control
T/C (dose: 300.0 mg/kg/injection, schedule: Q01DX001 (sc), evaluated on day 40): 120 % of control
survivor count (dose: 300.0 mg/kg/injection, schedule: Q01DX001 (sc)): 4 of 8
T/C (dose: 300.0 mg/kg/injection, schedule: Q01DX001 (sc), run until all animals had died): 190 and 270 % of control
T/C (dose: 300.0 mg/kg/injection, schedule: Q07DX003 (sc), evaluated on day 6): 235 and 247 % of control
T/C (dose: 300.0 mg/kg/injection, schedule: Q07DX003 (sc), evaluated on day 7): 104, 112, 172, 207, 258 % of control
T/C (dose: 300.0 mg/kg/injection, schedule: Q07DX003 (sc), evaluated on day 30): 172 and 207 % of control
T/C (dose: 300.0 mg/kg/injection, schedule: Q07DX003 (sc), evaluated on day 33): 230 % of control
T/C (dose: 300.0 mg/kg/injection, schedule: Q07DX003 (sc), evaluated on day 35): 105 % of control [7 of 8 alive]
T/C (dose: 300.0 mg/kg/injection, schedule: Q07DX003 (sc), evaluated on day 36): 233 % of control
T/C (dose: 300.0 mg/kg/injection, schedule: Q07DX003 (sc), evaluated on day 40): 315 % of control
T/C (dose: 300.0 mg/kg/injection, schedule: Q07DX003 (sc), evaluated on day 45): 252 % of control
T/C (dose: 300.0 mg/kg/injection, schedule: Q08DX002 (sc), evaluated on day 7): 209 and 219 % of control
T/C (dose: 300.0 mg/kg/injection, schedule: Q08DX002 (sc), evaluated on day 32): 216 % of control
T/C (dose: 300.0 mg/kg/injection, schedule: Q08DX002 (sc), evaluated on day 36): 211 % of control
survivor count (dose: 400.0 mg/kg/injection, schedule: Q01DX001 (ip)): 1 of 8
T/C (dose: 400.0 mg/kg/injection, schedule: Q01DX001 (sc), evaluated on day 7): 98, 104, 106, 107, 111, 191, 236, 237, 269, 270, 277 % of control
T/C (dose: 400.0 mg/kg/injection, schedule: Q01DX001 (sc), evaluated on day 9): 193 % of control
T/C (dose: 400.0 mg/kg/injection, schedule: Q01DX001 (sc), evaluated on day 21): 100 % of control
T/C (dose: 400.0 mg/kg/injection, schedule: Q01DX001 (sc), evaluated on day 31): 272 % of control
T/C (dose: 400.0 mg/kg/injection, schedule: Q01DX001 (sc), evaluated on day 32): 260 % of control
T/C (dose: 400.0 mg/kg/injection, schedule: Q01DX001 (sc), evaluated on day 34): 100 [8 of 10 alive] and 266 % of control [7 of 8 alive]
T/C (dose: 400.0 mg/kg/injection, schedule: Q01DX001 (sc), evaluated on day 36): 183 % of control [7 of 8 alive]
T/C (dose: 400.0 mg/kg/injection, schedule: Q01DX001 (sc), evaluated on day 40): 105 and 105 % of control [6 of 8 alive]
T/C (dose: 400.0 mg/kg/injection, schedule: Q01DX001 (sc), evaluated on day 43): 105 [6 of 8 alive] and 236 % of control
T/C (dose: 400.0 mg/kg/injection, schedule: Q01DX001 (sc), evaluated on day 60): 160 [6 of 8 alive] and 244 % of control
T/C (dose: 400.0 mg/kg/injection, schedule: Q01DX001 (sc), run until all animals had died): 208 % of control
T/C (dose: 400.0 mg/kg/injection, schedule: Q08DX002 (sc), evaluated on day 7): 103 and 118 % of control
T/C (dose: 400.0 mg/kg/injection, schedule: Q08DX002 (sc), evaluated on day 21): 100 % of control
T/C (dose: 400.0 mg/kg/injection, schedule: Q08DX002 (sc), evaluated on day 36): 122 % of control [7 of 8 alive]
T/C (dose: 400.0 mg/kg/injection, schedule: Q08DX002 (sc), evaluated on day 43): 116 % of control
T/C (dose: 400.0 mg/kg/injection, schedule: Q08DX003 (sc), evaluated on day 7): 168, 170, 203, 206 % of control
T/C (dose: 400.0 mg/kg/injection, schedule: Q08DX003 (sc), evaluated on day 32): 160 % of control
T/C (dose: 400.0 mg/kg/injection, schedule: Q08DX003 (sc), evaluated on day 34): 205 % of control [7 of 8 alive]
T/C (dose: 400.0 mg/kg/injection, schedule: Q08DX003 (sc), evaluated on day 42): 166 % of control [8 of 10 alive]
T/C (dose: 400.0 mg/kg/injection, schedule: Q08DX003 (sc), evaluated on day 43): 203 % of control
survivor count (dose: 500.0 mg/kg/injection, schedule: Q01DX001 (ip)): 0 of 8
T/C (dose: 500.0 mg/kg/injection, schedule: Q01DX001 (sc), evaluated on day 6): 252 % of control
T/C (dose: 500.0 mg/kg/injection, schedule: Q01DX001 (sc), evaluated on day 7): 63, 67, 68, 71, 96, 183, 245 % of control
T/C (dose: 500.0 mg/kg/injection, schedule: Q01DX001 (sc), evaluated on day 30): 183 % of control
T/C (dose: 500.0 mg/kg/injection, schedule: Q01DX001 (sc), evaluated on day 32): 244 % of control
T/C (dose: 500.0 mg/kg/injection, schedule: Q01DX001 (sc), evaluated on day 33): 255 % of control
survivor count (dose: 500.0 mg/kg/injection, schedule: Q01DX001 (sc)): 0 of 8, 2 of 8, 3 of 8 (3×), 4 of 8 (2×), 5 of 8
T/C (dose: 500.0 mg/kg/injection, schedule: Q01DX001 (sc), run until all animals had died): 114 % of control [6 of 8 alive]
T/C (dose: 500.0 mg/kg/injection, schedule: Q07DX003 (sc), evaluated on day 7): 69 and 209 % of control
T/C (dose: 500.0 mg/kg/injection, schedule: Q07DX003 (sc), evaluated on day 40): 110 % of control
T/C (dose: 500.0 mg/kg/injection, schedule: Q07DX003 (sc), evaluated on day 45): 210 % of control
survivor count (dose: 600.0 mg/kg/injection, schedule: Q01DX001 (ip)): 0 of 8
survivor count (dose: 600.0 mg/kg/injection, schedule: Q01DX001 (sc)): 0 of 8
